According to PubChem BioAssay AID192 (DTP/NCI, 2004):
The list is a part of this screen's results and no random one: it covers a few groups of compounds. Other doses and runs of a compound may be missing. T/C: endpoint of the treated group in % of that of the vehicle group. For survival time, the PubChem record calls one and a half times the control and up active, and a quarter to a half above the control has no call in these data; cut-offs in other NCI protocols can differ. Schedules are NCI's codes, read here as Q, the interval in days (D) or hours (H), X, the number of doses. Some entries show no survivor count and are marked so; the dose need not have been tolerated.

Tested on: BDF1 mice, B16 melanoma ip, median survival T/C
Test: NCI In Vivo Anticancer Drug Screen. Data for tumor model B16 Melanoma (intraperitoneal) in B6D2F1 (BDF1) mice
Conditions: T/C endpoint: median survival time, higher T/C = longer survival
Method: The antitumor activity of compounds was measured in mice bearing transplantable tumors. Survival or tumor size were measured and the results are expressed as the measurement made in the treated group (T) divided by the measurement made in the vehicle treated control group (C). The tumor model used in this assay is B16 Melanoma (intraperitoneal) in B6D2F1 (BDF1) mice

[1] = dose: 0.19 mg/kg/injection, schedule: Q04DX003 (ip), vehicle: other
[2] = dose: 0.38 mg/kg/injection, schedule: Q04DX003 (ip), vehicle: other
[3] = dose: 0.63 mg/kg/injection, schedule: Q01DX009 (ip), vehicle: Klucel (hydroxypropylcellulose) (HPC)
[4] = dose: 0.75 mg/kg/injection, schedule: Q04DX003 (ip), vehicle: other
[5] = dose: 1.5 mg/kg/injection, schedule: Q04DX003 (ip), vehicle: other

Question: What does the source list for `CC1=CC2OC3CC4OC(=O)/C=C/C=C/C(C(C)O)OCC(O)C(C)CC(=O)OCC2(CC1O)C4(C)C31CO1` (configuration not stated)?
Answer: T/C (dose: 0.09 mg/kg/injection, schedule: Q04DX003 (ip), vehicle: other): 137 % of control [survivor count not shown]; T/C [1]: 160 % of control [survivor count not shown]; T/C [2]: 169 % of control [survivor count not shown]; T/C [3]: 189 % of control [survivor count not shown]; T/C [4]: 156 % of control [survivor count not shown]

Question: `CC1=C[C@H]2O[C@@H]3C[C@H]4OC(=O)/C=C\C=C\C(C(C)O)OCC(O)C(C)CC(=O)OC[C@@]2(C[C@@H]1O)[C@]4(C)[C@@]31CO1` (some centres not stated) was tested. Which T/C [1] did it give?
Answer: 156 % of control [survivor count not shown]

Question: And the T/C [2]?
Answer: 156 % of control [survivor count not shown]

Question: And the T/C [3]?
Answer: 183 % of control [survivor count not shown]

Question: What about the T/C (dose: 0.63 mg/kg/injection, schedule: Q01DX009 (ip), vehicle: saline + alcohol) of the same molecule?
Answer: 176 % of control [survivor count not shown]

Question: What about the T/C [4] of the same molecule?
Answer: 159 % of control [survivor count not shown]

Question: And the T/C (dose: 1.25 mg/kg/injection, schedule: Q01DX009 (ip), vehicle: Klucel (hydroxypropylcellulose) (HPC))?
Answer: 190 % of control [survivor count not shown]

Question: What about the T/C (dose: 1.25 mg/kg/injection, schedule: Q01DX009 (ip), vehicle: saline + alcohol) of the same molecule?
Answer: 175 % of control [survivor count not shown]

Question: And the T/C [5]?
Answer: 164 % of control [survivor count not shown]

Question: What about the T/C (dose: 2.5 mg/kg/injection, schedule: Q01DX009 (ip), vehicle: saline + alcohol) of the same molecule?
Answer: 180 % of control [survivor count not shown]

Question: Which results are given for `CC1=C[C@H]2O[C@@H]3C[C@H]4OC(=O)/C=C\C=C\[C@H]([C@@H](C)O)OC[C@H](O)[C@@]5(C)O[C@@H]5C(=O)OC[C@@]2(C[C@H]1O)[C@]4(C)C31CO1` (some centres not stated)?
Answer: T/C [4]: 178 % of control [survivor count not shown]; T/C [5]: 187 % of control [survivor count not shown]; T/C (dose: 3.0 mg/kg/injection, schedule: Q04DX003 (ip), vehicle: other): 165 % of control [survivor count not shown]

Question: What does the source list for `CC1=CC2OC3C(OC(=O)CCl)C(OC(=O)CCl)C(C)(C2(COC(=O)CCl)CC1)C31CO1` (configuration not stated)?
Answer: T/C (dose: 1.0 mg/kg/injection, schedule: Q01DX009 (ip), vehicle: water): 109 % of control [survivor count not shown]; T/C (dose: 2.0 mg/kg/injection, schedule: Q01DX009 (ip), vehicle: water): 104 % of control [survivor count not shown]; T/C (dose: 4.0 mg/kg/injection, schedule: Q01DX009 (ip), vehicle: water): 105 % of control [survivor count not shown]; T/C (dose: 8.0 mg/kg/injection, schedule: Q01DX009 (ip), vehicle: water): 114 % of control [survivor count not shown]

Question: Which T/C (dose: 0.78 mg/kg/injection, schedule: Q01DX009 (ip), vehicle: saline with Tween-80) does the source give for `CC1=C[C@H]2O[C@@H]3C[C@H]4OC(=O)/C=C\C=C\C5OC(C/C(C)=C\C(=O)OCC2(CC1)[C@]4(C)[C@]31CO1)OC5C` (some centres not stated) here?
Answer: 117 % of control [survivor count not shown]

Question: And the T/C (dose: 1.56 mg/kg/injection, schedule: Q01DX009 (ip), vehicle: saline with Tween-80, evaluated on day 45)?
Answer: 128 % of control [survivor count not shown]

Question: What about the T/C (dose: 1.56 mg/kg/injection, schedule: Q01DX009 (ip), vehicle: saline with Tween-80, evaluated on day 50) of the same molecule?
Answer: 90 % of control [survivor count not shown]

Question: What about the T/C (dose: 3.13 mg/kg/injection, schedule: Q01DX009 (ip), vehicle: saline with Tween-80, evaluated on day 45) of the same molecule?
Answer: 129 % of control [survivor count not shown]

Question: What about the T/C (dose: 3.13 mg/kg/injection, schedule: Q01DX009 (ip), vehicle: saline with Tween-80, evaluated on day 50) of the same molecule?
Answer: 94 % of control [survivor count not shown]

Question: What about the T/C (dose: 6.25 mg/kg/injection, schedule: Q01DX009 (ip), vehicle: saline with Tween-80, evaluated on day 50) of the same molecule?
Answer: 94 % of control [survivor count not shown]
